Results deposited as PubChem BioAssay AID1259308 (NCATS, 2017).
Screen: 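Knock-downs that increase output of a recombinant reporter protein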 (primary screen). System: human HEK293 embryonic kidney cells stably expressing firefly luciferase (HEK-CMV-Luc2-Hygro). Knock-down reagent: single siRNA against human genes, 0.8 pmol siRNA per well. Time to read-out: 72 h. Read-out: 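Reporter luminescence and viable-cell signal on separate replicate plates, given as percent of non-targeting control and median/MAD z-scores, plus per-cell luciferase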. Direction: total luciferase, z-score and total luciferase, % of control: higher = more reporter protein produced. Hit rule: 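Active when the median/MAD z-score for overall luciferase is greater than 3; a gene was taken forward for validation with new siRNAs if at least two of its three siRNAs passed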. Calls: active = raised luciferase; inactive = no rise.
This is an unselected part of about 59,000 reagents tested. In the full data, about 1,510 (2.6%) got an active call. 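Calls use total luciferase alone and ignore viability, so some active siRNAs may act by altering cell number.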 Unmarked entries are inactive. Reagents against one gene are numbered here. Further read-outs or replicates are left out here.

ADGRG2 (GeneID 10149) #1 — total luciferase, z-score = -0.762; total luciferase, % of control = 66.7
ADGRG2 (GeneID 10149) #2 — total luciferase, z-score = 0.716; total luciferase, % of control = 96.1
ADGRG2 (GeneID 10149) #3 — total luciferase, z-score = -1.05; total luciferase, % of control = 61
IST1 (GeneID 9798) #1 — total luciferase, z-score = -0.703; total luciferase, % of control = 67.9
IST1 (GeneID 9798) #2 — total luciferase, z-score = -0.696; total luciferase, % of control = 68
IST1 (GeneID 9798) #3 — total luciferase, z-score = -1.25; total luciferase, % of control = 57.1
LIX1L (GeneID 128077) #1 — total luciferase, z-score = -0.234; total luciferase, % of control = 77.2
LIX1L (GeneID 128077) #2 — total luciferase, z-score = -2.09; total luciferase, % of control = 40.2
LIX1L (GeneID 128077) #3 — total luciferase, z-score = -0.111; total luciferase, % of control = 79.7

Single entries from above.
Under “total luciferase, z-score”, LIX1L (GeneID 128077) #2 has -2.09
LIX1L (GeneID 128077) #1, total luciferase, % of control = 77.2

The listing continues.
CYSRT1 (GeneID 375791) #1 — total luciferase, z-score = -0.286; total luciferase, % of control = 76.2
CYSRT1 (GeneID 375791) #2 — total luciferase, z-score = -0.147; total luciferase, % of control = 79
CYSRT1 (GeneID 375791) #3 — total luciferase, z-score = 0.776; total luciferase, % of control = 97.3
KIAA2012-AS1 (GeneID 729224) #1 — total luciferase, z-score = -0.0773; total luciferase, % of control = 80.3
KIAA2012-AS1 (GeneID 729224) #2 — total luciferase, z-score = 0.32; total luciferase, % of control = 88.3
KIAA2012-AS1 (GeneID 729224) #3 — total luciferase, z-score = 0.854; total luciferase, % of control = 98.9
PRR12 (GeneID 57479) #1 — total luciferase, z-score = -0.508; total luciferase, % of control = 71.8
PRR12 (GeneID 57479) #2 — total luciferase, z-score = -0.33; total luciferase, % of control = 75.3
PRR12 (GeneID 57479) #3 — total luciferase, z-score = 2.29; total luciferase, % of control = 127
COL7A1 (GeneID 1294) #1 — total luciferase, z-score = 1.53; total luciferase, % of control = 112
COL7A1 (GeneID 1294) #2 — total luciferase, z-score = -1.35; total luciferase, % of control = 55
COL7A1 (GeneID 1294) #3 — total luciferase, z-score = 0.518; total luciferase, % of control = 92.2
